Results: publication PMC2987844

Biological target: T1, ephrinA5^FLAG (UniProt P52804)
T1 sequence: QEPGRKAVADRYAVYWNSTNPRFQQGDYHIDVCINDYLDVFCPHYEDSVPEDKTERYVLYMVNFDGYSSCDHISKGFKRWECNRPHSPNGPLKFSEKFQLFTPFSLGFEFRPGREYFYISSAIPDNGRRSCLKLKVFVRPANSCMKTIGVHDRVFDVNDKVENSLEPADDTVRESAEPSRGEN
Experiment: co-IP; CHO cells transfected with ephrinA5^FLAG and TrkA^HA or p75^NTR;HA, low expression levels; lysed one day later; immunoprecipitation with αFLAG antibody; western blot

## TrkA^HA (receptor)
  binding: binds

No constants are given. Whether binding was seen depends on the method and setting. In cells and extracts the contact can be indirect. Binding calls can cover weak binding; strength is not graded here. Where a sequence is shown, tags or fusion partners need not be part of it.
